# In doi:10.1101/2025.06.10.658772 (bioRxiv, 2025):
# How the values were obtained:
# [1] = molecular target: C-terminally LgBiT-fused Lc-GPR25 (coelacanth (Latimeria chalumnae)) (UniProt H3AQL3); assay: split reporter
# [2] = molecular target: N-terminally sLgBiT-fused Lc-GPR25 (coelacanth (Latimeria chalumnae)) (UniProt H3AQL3); assay: split reporter
Molecule,binding [1],binding [2]
N-terminally SmBiT-fused human β-arrestin 2 (ARRB2) (from UniProt P32121 1-409),binds,
N-terminally 6×His-tagged wild-type (WT) human CXCL17 (ligand) SSLNPGVARGHRDRGQASRRWLQEGGQECECKDWFLRAPRRKFMTVSGLPKKQCPCDHFKGNVKKTRHQRHHRKPNKHSRACQQFLKQCQLRSFALPL,,binds

# These are yes or no findings as the source states them, for the method shown. In cells and extracts the contact can be indirect. A result given as binding can be weak or reduced; the word gives no strength. For some assays here: Sequences can lack the tags named with a protein.
